Data from PubChem BioAssay (NCATS).
Inconclusive means that the source gave no clear call. Such entries were picked first, then a sample of the others. A potency beside an inconclusive call is a rough fit, not a confirmed value. Activity calls are given as the source filed them. Calls come from the whole dose curve; as a rule, active = well fitted cell-killing curve with a large enough effect; inconclusive = small, poorly fitted or top-dose-only effect, or effect the other way; inactive = no such curve, though single readings can be large or run the other way.

Assay: Quantitative High-Throughput drug screen in 47 multiple myeloma cell lines against the NCATS MIPE library collection: RPMI8226_ATCC cell viability assay (AID 1919871); note: nearly all actives have a fitted effect of over 30% in size
Conditions: RPMI8226 myeloma viability, CellTiter-Glo ATP luminescence, 48 h; viability (% of control): at 45.8 µM (top of the series)
Excerpt: PI: Beverly A. Mock Ph.D.
Laboratory of Cancer Biology and Genetics,
Center for Cancer Research, National Cancer Institute,
National Institute of Health, Bethesda, Maryland
Drug resistance and disease progression are common in multiple myeloma (MM) patients, underscoring the need for new therapeutic combinations. […] We hypothesized that effective combinations would reduce MYC expression and enhance p16 activity. […] These preclinical data identify potentially useful drug combinations for evaluation in drug-resistant MM and reveal potential mechanisms of combined drug sensitivity.
Described herein is the primary MIPE qHTS used to cherrypick compounds. Validated compounds were then further tested for potential synergistic activiy.
[1] Peat TJ, Gaikwad SM, Dubois W, Gyabaah-Kessie N, Zhang S, Gorjifard S, Phyo Z, Andres M, Hughitt VK, Simpson RM, Miller MA, Girvin AT, Taylor A, Williams D, D'Antonio N, Zhang Y, Rajagopalan A, Flietner E, Wilson K, Zhang X, Shinn P, Klumpp-Thomas C, McKnight C, Itkin Z, Chen L, Kazandijian D, Zhang J, Michalowski AM, Simmons JK, Keats J, Thomas CJ, Mock BA. Drug combinations identified by high-throughput screening promote cell cycle transition and upregulate Smad pathways in myeloma. Cancer Lett. 2023 Aug 1;568:216284. doi: 10.1016/j.canlet.2023.216284. Epub 2023 Jun 24. PMID: 37356470; PMCID: PMC10408729.
SEQUENCE No. (e.g., 1, 2, 3, etc.); […] (e.g., Cells, Incubation, Reagent, etc.); VALUE and DESCRIPTION.
1; Cells; 5 uL; white, solid bottom 1536-well Greiner assay plate.
2; Compounds; 23 nL; Kalypsis pin tool (Wako USA) equipped with a 1536-well pin head to transfer to the assay plates.
3; Incubation; 48 hours; 37C incubation.
4; Reagent;5uL; CellTiter Glo (Promega).
5; Detector; 425V; Luminescence; Viewlux PerkinElmer.
NOTES (numbers refer to Sequence numbers above)
1. The cell-based screening methods employed in this study were like those previously published. Briefly, the corresponding myeloma cell lines were screened in 1,536-well plates with 500 cells, 5-uL per well for inhibition of cell viability (assessed by measuring ATP levels with CellTiterGlo).
2. NCATS MIPE 4.0 library of approved and investigational drugs were added using the Kalypsis pin tool. Wells treated with DMSO only for 100% viability and media only for 0% viability were used as controls.
3. The assay plates were covered and incubated for 48 hours in a 37C, 5% CO2 incubator with controlled humidity.
4. After 48 hours, CellTilter-GloTM luminescent substrate mix (Promega) reagent was added to the assay plate and plates we incubated for 5 min at room temperature.
5. Signal was measured as median relative luminescence units on a ViewLux (PerkinElmer) multiplate reader.
[1] Heske CM, Davis MI, Baumgart JT, Wilson K, Gormally MV, Chen L, Zhang X, Ceribelli M, Duveau DY, Guha R, Ferrer M, Arnaldez FI, Ji J, Tran HL, Zhang Y, Mendoza A, Helman LJ, Thomas CJ. Matrix Screen Identifies Synergistic Combination of PARP Inhibitors and Nicotinamide Phosphoribosyltransferase (NAMPT) Inhibitors in Ewing Sarcoma. Clin Cancer Res. 2017 Dec 1;23(23):7301-7311. doi: 10.1158/1078-0432.CCR-17-1121. Epub 2017 Sep 12. PMID: 28899971; PMCID: PMC6636827.
Potency is the fitted concentration of half-maximal effect.

Q: Which Potency does the source give for `CCN(CC)C(=O)c1ccc(C2=CC3(CCNCC3)Oc3cccc(O)c32)cc1` here?
A: The Potency was inconclusive: 16.6 µM [cytotoxic, partial curve, poor fit].

Q: With `C[C@@]12OC(=O)[C@]1([C@@H](O)[C@@H]1C=CCCC1)NC(=O)[C@H]2CCCl` as the compound, how does the Potency read?
A: The Potency was active: 0.0296 µM.

Q: For `c1ccc(CCCN2CCN(CCOC(c3ccccc3)c3ccccc3)CC2)cc1`, which Potency is on record?
A: Its Potency is active: 20.9 µM.

Q: With `COc1ccc(N(C(=O)Oc2c(C)cccc2C)c2ccnc(Nc3ccc(N4CCN(C)CC4)cc3)n2)c(OC)c1` as the compound, how does the Potency read?
A: The Potency was active: 4.18 µM.

Q: Which Potency does the source give for `C=C1C[C@H]2[C@H]3CCC(=O)[C@@]3(C)CC[C@@H]2[C@@]2(C)C=CC(=O)C=C12` here?
A: The Potency was active: 18.7 µM.

Q: Which Potency does the source give for `COc1ccc(C(=O)N2CCCC2=O)cc1` here?
A: The Potency was active: 2.35 µM.

Q: For `C1=C2CCCN[C@H]2[C@@H]2C[C@H]1[C@@H]1CCCCN1C2`, which “viability (% of control)” value is on record?
A: The value was inactive: 97.1%.

Q: Which Potency does the source give for `CC(C)N[C@@H]1CCn2c(=O)[nH]c3cccc(c32)[C@@H]1O` here?
A: The Potency was inconclusive: 18.7 µM [cytotoxic, partial curve].

Q: With `Cn1cc(C2=C(c3cn(C4CCN(Cc5ccccn5)CC4)c4ccccc34)C(=O)NC2=O)c2ccccc21` as the compound, how does the “viability (% of control)” value read?
A: Its value is inactive: 95.3%.

Q: For `CCNC(=O)CC1N=C(c2ccc(Cl)cc2)c2cc(OC)ccc2-n2c(C)nnc21` (stereo not given), which Potency is on record?
A: Its Potency is active: 4.69 µM.

Q: For `CC(=O)N(C)c1cccc(-c2ccnc3c(C(=O)c4cccs4)cnn23)c1`, which Potency is on record?
A: Its Potency is inconclusive: 0.0021 µM [cytotoxic, full curve, poor fit].

Q: For `COc1cc([C@@H]2c3cc4c(cc3[C@@H](O)C3COC(=O)C32)OCO4)cc(OC)c1O` (stereo not given in full), which Potency is on record?
A: Its Potency is active: 0.118 µM.

Q: Which Potency does the source give for `Cc1[nH]nc2ccc(-c3cncc(OC[C@@H](N)Cc4c[nH]c5ccccc45)c3)cc12` here?
A: Its Potency is active: 3.32 µM.

Q: With `C[C@@H]1O[C@@H](O[C@@H]2C=C3CC[C@@H]4[C@@H](CC[C@]5(C)[C@H](c6ccc(=O)oc6)CC[C@@]45O)[C@@]3(C)CC2)[C@H](O)[C@H](O)[C@H]1O` as the compound, how does the Potency read?
A: The Potency was active: 0.0235 µM.

Q: For `C#CC1(O)CCC2C3CCC4=CC(=O)CCC4(C)C3CCC21C` (stereo not given), which Potency is on record?
A: Its Potency is inconclusive: 0.148 µM [cytotoxic, partial curve, poor fit].

Q: For `CN(C)[C@@H]1C(=O)C(C(N)=O)=C(O)[C@@]2(O)C(=O)C3=C(O)c4c(O)cccc4[C@@](C)(O)[C@H]3[C@H](O)[C@@H]12`, which Potency is on record?
A: The Potency was inconclusive: 0.132 µM [cytotoxic, partial curve, poor fit].

Q: For `CN1CCN(c2ccc([N+](=O)[O-])c3no[n+]([O-])c23)CC1`, which Potency is on record?
A: The Potency was inconclusive: 33.2 µM [cytotoxic, single point].

Q: For `C[C@]12Cc3cn[nH]c3C[C@@H]1CC[C@@H]1[C@H]2CC[C@@]2(C)[C@H]1CC[C@]2(C)O`, which Potency is on record?
A: Its Potency is inconclusive: 23.5 µM [cytotoxic, partial curve, poor fit].

Q: For `CC1=C(O)C(=O)C=C2C1=CC=C1[C@@]2(C)CC[C@@]2(C)[C@@H]3C[C@](C)(C(=O)O)CC[C@]3(C)CC[C@]12C`, which Potency is on record?
A: The Potency was active: 1.18 µM.

Q: For `N#C[C@H](O[C@@H]1O[C@H](CO[C@@H]2O[C@H](CO)[C@H](O)[C@H](O)[C@H]2O)[C@H](O)[C@H](O)[C@H]1O)c1ccccc1`, which Potency is on record?
A: Its Potency is active: 23.5 µM.

Q: With `CCCC(C)(COC(N)=O)COC(=O)NC(C)C` (stereo not given) as the compound, how does the “viability (% of control)” value read?
A: Its value is inactive: 103%.

Q: For `C[C@]12CCC(=O)C=C1CC[C@@H]1[C@H]3CC[C@](C)(O)[C@@]3(C)CC[C@@H]12`, which Potency is on record?
A: The Potency was active: 38.2 µM.

Q: Which Potency does the source give for `CN1C(=O)CCS(=O)(=O)C1c1ccc(Cl)cc1` (stereo not given) here?
A: Its Potency is inconclusive: 0.0132 µM [cytotoxic, full curve, poor fit].

Q: For `C=C[C@@H]1CN2CCC1C[C@H]2[C@H](O)c1ccnc2ccccc12` (stereo not given in full), which Potency is on record?
A: The Potency was active: 18.7 µM.

Q: With `CN[C@@H]1Cc2cccc3[nH]c(=O)n(c23)C1` as the compound, how does the “viability (% of control)” value read?
A: Its value is inactive: 104%.

Q: For `CC1(N2CCC(n3c([C@@H]4CCCNC4)nc4ccccc43)CC2)CCCCCCC1`, which Potency is on record?
A: Its Potency is active: 20.9 µM.

Q: For `O=C1CCC[C@@H]2[C@H]3CCCN4CCC[C@@H](CN12)[C@@H]34`, which Potency is on record?
A: The Potency was inconclusive: 0.0019 µM [rising, full curve, poor fit].

Q: With `CC(=Cc1csc(C)n1)[C@@H]1C[C@H]2O[C@]2(C)CCC[C@H](C)[C@@H](O)[C@@H](C)C(=O)C(C)(C)[C@@H](O)CC(=O)O1` as the compound, how does the “viability (% of control)” value read?
A: Its value is inactive: 68.7%.

Q: With `Cc1nc(-c2ccc(-c3ccc(C(=O)N4CCc5cc6c(cc54)C4(CCN(C)CC4)CO6)cc3)c(C)c2)no1` as the compound, how does the Potency read?
A: The Potency was inconclusive: 0.003 µM [rising, full curve, poor fit].

Q: With `O=C(O)CNC(=O)c1c(O)c2ccccc2n(Cc2ccccc2)c1=O` as the compound, how does the Potency read?
A: The Potency was inconclusive: 14.8 µM [cytotoxic, partial curve, poor fit].

Q: With `CCNC(=O)C[C@@H]1N=C(c2ccc(Cl)cc2)c2cc(OC)ccc2-n2c(C)nnc21` as the compound, how does the Potency read?
A: Its Potency is active: 1.18 µM.

Q: With `C[C@]12CCC(=O)C(O)=C1CC[C@@H]1[C@H]3CCC(=O)[C@@]3(C)CC[C@@H]12` as the compound, how does the Potency read?
A: The Potency was inconclusive: 23.5 µM [cytotoxic, partial curve, poor fit].

Q: Which “viability (% of control)” value does the source give for `COC(=O)[C@@H](N)CCCN=C(N)N[N+](=O)[O-]` here?
A: Its value is inactive: 135%.

Q: With `COC1=CC(C)=C[C@@H](C)[C@@H](O)[C@@H](C)CC(C)=CC=C[C@H](OC)[C@H]([C@@H](C)[C@@H](O)[C@H](C)[C@@]2(O)C[C@@H](O)[C@H](C)[C@@H](C(C)C)O2)OC1=O` as the compound, how does the Potency read?
A: The Potency was inconclusive: 0.0042 µM [cytotoxic, full curve, poor fit].

Q: For `C[C@]12CC[C@@H]3[C@@H](CCC4=CC(=O)CC[C@@H]43)[C@@H]1CC[C@@H]2OC(=O)CCc1ccccc1`, which Potency is on record?
A: Its Potency is inconclusive: 33.2 µM [cytotoxic, single point].

Q: For `N[C@@H](Cc1ccc(N(CCCl)CCCl)cc1)C(=O)O`, which Potency is on record?
A: The Potency was inconclusive: 33.2 µM [cytotoxic, single point].

Q: Which Potency does the source give for `O=C1CC[C@@]2(O)[C@H]3Cc4ccc(O)c5c4[C@@]2(CCN3CC2CC2)[C@H]1O5` here?
A: The Potency was inconclusive: 2.09 µM [cytotoxic, full curve, poor fit].

Q: With `COc1cc2cc(c1Cl)N(C)C(=O)C[C@H](OC(=O)C(C)C)[C@]1(C)O[C@H]1[C@H](C)[C@@H]1C[C@@](O)(NC(=O)O1)[C@H](OC)C=CC=C(C)C2` as the compound, how does the “viability (% of control)” value read?
A: The value was inactive: 12.6%.

Q: For `Cc1ccccc1-n1c(Cn2ncc3c(N)ncnc32)nc2cccc(C)c2c1=O`, which Potency is on record?
A: The Potency was active: 8.33 µM.

Q: Which Potency does the source give for `CC[C@H]1C=CC=CC[C@@H](C)[C@H](O)[C@@](C)(O)C(=O)[C@@H](C)[C@H](O)[C@@H](C)C(=O)[C@@H](C)[C@H](O)[C@@H](C)C=CC(=O)O[C@@H]2[C@@H](C)[C@H](CC1)O[C@]1(CC[C@H](C)[C@H](C[C@@H](C)O)O1)[C@H]2C` here?
A: The Potency was inconclusive: 23.5 µM [cytotoxic, partial curve, poor fit].
